Common to all, as to assay: co-IP
Assay [1] deals with Mcm3 with TAP tag (S. cerevisiae (endogenous in W303-derived strains)) (UniProt P24279).
In assay [2] the target is POLE1 with C-terminal GFP, wild type (human) (UniProt Q07864).
The target of assay [3] is POLE1 with N-terminal GFP, wild type (human) (UniProt Q07864).
The target in assay [4] is pole1 315-AAIAAFA-321 with C-terminal GFP (human) (UniProt Q07864).
Assay [5] has as its target pole1 315-AAIAAFA-321 with N-terminal GFP (human) (UniProt Q07864).

Protein sequences, listed by entry. Tags and fused reporters are not part of them. Lines headed by an entry give the natural chain unless they say otherwise; changes in a name come on top. Chains listed by the source or under a name are the forms on record and can include a tag or linker.
UniProt Q07864: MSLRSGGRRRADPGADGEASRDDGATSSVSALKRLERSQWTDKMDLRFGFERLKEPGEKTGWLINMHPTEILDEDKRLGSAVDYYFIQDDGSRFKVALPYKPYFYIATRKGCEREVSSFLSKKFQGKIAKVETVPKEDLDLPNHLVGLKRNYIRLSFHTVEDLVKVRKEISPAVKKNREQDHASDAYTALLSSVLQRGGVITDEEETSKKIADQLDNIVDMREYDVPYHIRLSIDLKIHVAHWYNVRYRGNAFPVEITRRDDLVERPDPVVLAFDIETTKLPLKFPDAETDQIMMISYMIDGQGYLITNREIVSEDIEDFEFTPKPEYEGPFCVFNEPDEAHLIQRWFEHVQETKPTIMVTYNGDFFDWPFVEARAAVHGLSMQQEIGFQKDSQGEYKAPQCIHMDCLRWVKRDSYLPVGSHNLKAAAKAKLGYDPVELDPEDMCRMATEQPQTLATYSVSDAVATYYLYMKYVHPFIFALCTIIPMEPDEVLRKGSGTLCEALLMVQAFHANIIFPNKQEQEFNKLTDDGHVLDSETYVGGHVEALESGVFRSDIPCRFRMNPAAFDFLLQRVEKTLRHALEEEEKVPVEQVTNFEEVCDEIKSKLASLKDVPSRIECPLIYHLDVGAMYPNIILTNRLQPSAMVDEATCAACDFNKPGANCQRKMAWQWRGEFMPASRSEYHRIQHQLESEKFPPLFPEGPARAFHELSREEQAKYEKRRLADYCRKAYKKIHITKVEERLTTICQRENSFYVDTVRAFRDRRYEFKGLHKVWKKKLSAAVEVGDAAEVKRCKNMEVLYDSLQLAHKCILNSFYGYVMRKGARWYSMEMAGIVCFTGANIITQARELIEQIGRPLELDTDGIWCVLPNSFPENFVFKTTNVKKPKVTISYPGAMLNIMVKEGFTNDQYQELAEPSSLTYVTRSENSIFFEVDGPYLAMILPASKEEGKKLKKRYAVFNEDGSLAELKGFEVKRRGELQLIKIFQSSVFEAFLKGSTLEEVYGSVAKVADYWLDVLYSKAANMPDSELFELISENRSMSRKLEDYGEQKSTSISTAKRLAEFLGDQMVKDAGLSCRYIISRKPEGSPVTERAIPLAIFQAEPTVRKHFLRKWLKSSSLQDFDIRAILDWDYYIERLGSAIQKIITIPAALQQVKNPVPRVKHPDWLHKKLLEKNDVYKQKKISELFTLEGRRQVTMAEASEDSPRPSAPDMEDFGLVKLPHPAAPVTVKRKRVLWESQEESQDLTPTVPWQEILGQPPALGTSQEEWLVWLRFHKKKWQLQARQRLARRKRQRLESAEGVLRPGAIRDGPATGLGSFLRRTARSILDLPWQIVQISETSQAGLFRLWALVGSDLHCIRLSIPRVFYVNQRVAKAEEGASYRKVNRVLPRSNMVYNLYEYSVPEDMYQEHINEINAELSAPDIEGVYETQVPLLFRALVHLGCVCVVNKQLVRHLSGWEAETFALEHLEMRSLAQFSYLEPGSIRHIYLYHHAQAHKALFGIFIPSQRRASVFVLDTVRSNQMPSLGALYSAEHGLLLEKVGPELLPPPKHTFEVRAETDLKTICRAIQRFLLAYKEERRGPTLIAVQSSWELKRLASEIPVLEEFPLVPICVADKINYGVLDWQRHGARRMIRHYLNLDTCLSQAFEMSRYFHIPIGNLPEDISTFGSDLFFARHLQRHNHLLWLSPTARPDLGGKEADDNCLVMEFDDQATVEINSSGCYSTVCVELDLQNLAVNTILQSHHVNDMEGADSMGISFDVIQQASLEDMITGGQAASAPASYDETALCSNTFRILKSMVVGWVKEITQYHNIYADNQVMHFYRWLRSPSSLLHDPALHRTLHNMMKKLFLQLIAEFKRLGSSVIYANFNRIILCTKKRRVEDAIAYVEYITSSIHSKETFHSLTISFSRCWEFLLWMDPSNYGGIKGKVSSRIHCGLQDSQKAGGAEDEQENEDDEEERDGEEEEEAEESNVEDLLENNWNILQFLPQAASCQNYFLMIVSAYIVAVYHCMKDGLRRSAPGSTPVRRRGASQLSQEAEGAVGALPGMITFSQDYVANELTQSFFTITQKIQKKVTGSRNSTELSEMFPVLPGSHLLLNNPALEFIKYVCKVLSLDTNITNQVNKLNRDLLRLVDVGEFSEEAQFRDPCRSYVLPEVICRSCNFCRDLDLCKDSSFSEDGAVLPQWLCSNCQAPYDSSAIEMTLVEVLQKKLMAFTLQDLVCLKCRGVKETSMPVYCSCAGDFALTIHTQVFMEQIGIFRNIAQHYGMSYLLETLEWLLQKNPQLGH
pole1 315-AAIAAFA-321 with N-terminal GFP (Q07864, form named): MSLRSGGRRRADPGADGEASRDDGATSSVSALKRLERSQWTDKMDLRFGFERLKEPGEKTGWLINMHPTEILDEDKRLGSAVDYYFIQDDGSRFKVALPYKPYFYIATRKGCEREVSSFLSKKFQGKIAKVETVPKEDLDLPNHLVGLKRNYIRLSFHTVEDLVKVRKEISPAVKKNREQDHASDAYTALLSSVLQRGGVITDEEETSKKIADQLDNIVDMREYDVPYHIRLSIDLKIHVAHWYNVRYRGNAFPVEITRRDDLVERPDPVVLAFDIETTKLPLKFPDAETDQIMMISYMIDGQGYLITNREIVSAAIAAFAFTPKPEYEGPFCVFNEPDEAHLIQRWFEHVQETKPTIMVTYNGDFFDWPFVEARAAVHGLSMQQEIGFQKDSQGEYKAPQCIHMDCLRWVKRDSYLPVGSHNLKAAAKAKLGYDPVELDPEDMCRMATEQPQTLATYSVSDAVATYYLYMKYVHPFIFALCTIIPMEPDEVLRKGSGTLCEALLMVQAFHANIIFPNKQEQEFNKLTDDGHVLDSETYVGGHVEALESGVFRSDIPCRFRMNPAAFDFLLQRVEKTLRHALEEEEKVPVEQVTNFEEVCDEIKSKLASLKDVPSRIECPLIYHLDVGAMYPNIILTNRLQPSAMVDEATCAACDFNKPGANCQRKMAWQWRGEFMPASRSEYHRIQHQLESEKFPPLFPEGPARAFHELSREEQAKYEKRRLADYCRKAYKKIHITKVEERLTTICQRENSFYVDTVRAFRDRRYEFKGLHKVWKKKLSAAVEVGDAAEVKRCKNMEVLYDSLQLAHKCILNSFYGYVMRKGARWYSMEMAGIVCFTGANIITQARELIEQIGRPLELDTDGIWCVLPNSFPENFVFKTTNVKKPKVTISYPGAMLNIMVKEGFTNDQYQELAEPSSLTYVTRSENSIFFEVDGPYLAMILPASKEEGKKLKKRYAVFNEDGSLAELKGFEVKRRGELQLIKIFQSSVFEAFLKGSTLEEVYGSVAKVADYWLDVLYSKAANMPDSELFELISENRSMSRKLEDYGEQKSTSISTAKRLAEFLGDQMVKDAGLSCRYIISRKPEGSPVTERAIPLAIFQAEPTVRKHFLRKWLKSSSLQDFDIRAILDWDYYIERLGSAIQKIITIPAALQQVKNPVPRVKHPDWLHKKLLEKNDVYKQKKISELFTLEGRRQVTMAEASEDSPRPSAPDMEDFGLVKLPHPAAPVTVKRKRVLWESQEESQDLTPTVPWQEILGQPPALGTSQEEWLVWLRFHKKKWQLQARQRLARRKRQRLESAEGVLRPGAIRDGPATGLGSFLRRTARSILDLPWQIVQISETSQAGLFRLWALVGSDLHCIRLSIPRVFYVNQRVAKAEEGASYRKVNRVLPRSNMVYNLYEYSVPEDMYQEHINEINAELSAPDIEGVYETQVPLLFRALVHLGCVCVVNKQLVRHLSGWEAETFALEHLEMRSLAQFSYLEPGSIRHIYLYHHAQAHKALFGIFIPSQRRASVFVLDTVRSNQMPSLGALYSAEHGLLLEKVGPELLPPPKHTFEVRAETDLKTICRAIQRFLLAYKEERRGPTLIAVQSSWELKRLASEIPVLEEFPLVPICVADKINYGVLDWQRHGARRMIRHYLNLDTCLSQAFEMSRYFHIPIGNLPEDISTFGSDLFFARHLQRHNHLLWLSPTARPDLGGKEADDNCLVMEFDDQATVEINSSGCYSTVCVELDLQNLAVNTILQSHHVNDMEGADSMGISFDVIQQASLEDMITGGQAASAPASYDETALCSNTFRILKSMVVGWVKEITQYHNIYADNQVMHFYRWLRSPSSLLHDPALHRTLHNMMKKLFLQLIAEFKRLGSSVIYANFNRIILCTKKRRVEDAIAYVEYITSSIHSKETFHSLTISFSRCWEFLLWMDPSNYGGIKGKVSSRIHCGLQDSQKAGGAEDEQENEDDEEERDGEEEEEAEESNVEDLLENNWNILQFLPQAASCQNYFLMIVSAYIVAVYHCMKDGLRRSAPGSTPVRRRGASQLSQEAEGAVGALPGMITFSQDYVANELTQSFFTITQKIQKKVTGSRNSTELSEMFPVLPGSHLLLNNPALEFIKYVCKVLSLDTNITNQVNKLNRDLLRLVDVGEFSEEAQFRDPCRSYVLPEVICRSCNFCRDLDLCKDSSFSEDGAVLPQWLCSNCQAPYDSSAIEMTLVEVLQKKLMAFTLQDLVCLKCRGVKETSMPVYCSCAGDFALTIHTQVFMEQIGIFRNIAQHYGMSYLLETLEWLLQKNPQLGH
UniProt P15873: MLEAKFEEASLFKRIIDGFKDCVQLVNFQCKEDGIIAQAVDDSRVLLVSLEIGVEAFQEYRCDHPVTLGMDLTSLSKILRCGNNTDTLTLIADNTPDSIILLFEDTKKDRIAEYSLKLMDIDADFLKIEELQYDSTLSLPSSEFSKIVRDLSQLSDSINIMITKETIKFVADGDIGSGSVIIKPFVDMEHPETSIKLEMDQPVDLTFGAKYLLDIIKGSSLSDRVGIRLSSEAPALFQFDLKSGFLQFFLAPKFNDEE
UniProt Q8WVB6: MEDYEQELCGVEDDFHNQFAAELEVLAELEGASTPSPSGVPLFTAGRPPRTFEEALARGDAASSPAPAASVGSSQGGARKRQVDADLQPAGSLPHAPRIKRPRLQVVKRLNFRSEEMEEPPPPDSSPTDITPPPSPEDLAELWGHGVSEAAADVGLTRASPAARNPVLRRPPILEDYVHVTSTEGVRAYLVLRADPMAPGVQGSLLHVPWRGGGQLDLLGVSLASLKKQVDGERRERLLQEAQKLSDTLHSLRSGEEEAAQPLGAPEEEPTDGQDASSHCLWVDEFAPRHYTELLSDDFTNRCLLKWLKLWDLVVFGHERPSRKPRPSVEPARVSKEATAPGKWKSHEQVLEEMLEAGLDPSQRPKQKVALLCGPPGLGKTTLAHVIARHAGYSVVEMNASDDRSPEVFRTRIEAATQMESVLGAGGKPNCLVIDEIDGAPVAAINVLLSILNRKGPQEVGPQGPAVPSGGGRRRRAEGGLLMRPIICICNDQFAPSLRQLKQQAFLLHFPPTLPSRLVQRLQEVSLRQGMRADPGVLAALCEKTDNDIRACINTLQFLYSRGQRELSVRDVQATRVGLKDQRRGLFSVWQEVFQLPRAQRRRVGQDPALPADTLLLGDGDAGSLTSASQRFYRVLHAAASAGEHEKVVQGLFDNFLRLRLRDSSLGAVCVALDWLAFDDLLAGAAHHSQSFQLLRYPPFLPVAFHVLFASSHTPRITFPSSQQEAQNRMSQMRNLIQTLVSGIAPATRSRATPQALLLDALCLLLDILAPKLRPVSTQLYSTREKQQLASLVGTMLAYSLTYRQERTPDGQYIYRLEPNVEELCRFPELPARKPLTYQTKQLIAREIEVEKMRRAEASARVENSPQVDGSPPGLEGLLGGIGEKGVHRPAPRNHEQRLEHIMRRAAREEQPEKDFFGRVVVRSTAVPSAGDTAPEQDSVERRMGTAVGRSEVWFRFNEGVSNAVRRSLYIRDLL

These are yes or no findings as the source states them, for the method shown. Binding seen in cells or lysates may run through a third protein. Some results given as binding are weak or reduced against the parent protein; the word gives no strength.

As for PCNA (from UniProt P15873 1-258), the binding result in assay [1] is listed as “binds”.
On to “Ctf18 (human, of CTF18-RFC) (from UniProt Q8WVB6 1-975)”, for which the binding result was “binds” in assay [2], “binds” in assay [3], “no binding” in assay [4] and “no binding” in assay [5].

The values above are taken from doi:10.1101/808840.
